Results deposited as PubChem BioAssay AID1259405 (NCATS, 2018).

Screen: 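Knock-downs that lift recombinant protein yield in hamster ovary cells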 (primary screen)
System: Chinese hamster CHO-K1 ovary cells with stable secreted eGFP expression
Reagent: single siRNA against mouse genes, 0.8 pmol siRNA per well (2 µl of 400 nM stock)
Time to read-out: 3 days
Detection: 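Per-well intracellular GFP measured by laser scanning cytometry, plus viability from ATP luminescence, each relative to plate median of non-targeting control wells, in %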
Direction: GFP, % of control: higher = more GFP per well, higher productivity; viability (ATP), % of control: higher = more viable cells (more ATP)
Rule for the call: 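a knock-down is called active if GFP reaches 120% or more of non-targeting control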
The whole screen tested about 50,000 reagents; this is a random part of them. About 4,000 of them (8%) were called active. 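Mouse siRNA library applied to hamster cells; one well for each siRNA.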 Reagents against one gene are numbered here.

| gene | reagent no. | GFP, % of control | viability (ATP), % of control | call |
| --- | --- | --- | --- | --- |
| Spag6l | 1 | 109 | 91.3 | inactive |
| Spag6l | 2 | 74.2 | 62.8 | inactive |
| Spag6l | 3 | 64.6 | 82.3 | inactive |
| Ctnnbip1 | 1 | 76.2 | 64.3 | inactive |
| Ctnnbip1 | 2 | 28.2 | 33.6 | inactive |
| Ctnnbip1 | 3 | 97.7 | 102 | inactive |
| Gpr34 | 1 | 52.2 | 64.6 | inactive |
| Gpr34 | 2 | 75 | 84.5 | inactive |
| Gpr34 | 3 | 90.7 | 102 | inactive |
| Canx | 1 | 64.9 | 63.2 | inactive |
| Canx | 2 | 65.5 | 88.6 | inactive |
| Canx | 3 | 49.2 | 68.3 | inactive |
| Dcx | 1 | 99 | 52.7 | inactive |
| Dcx | 2 | 86.6 | 79.5 | inactive |
| Dcx | 3 | 80.8 | 83.4 | inactive |
| Actg1 | 1 | 77.2 | 101 | inactive |
| Actg1 | 2 | 57.5 | 69.2 | inactive |
| Actg1 | 3 | 96.6 | 51.8 | inactive |
| Cryba4 | 1 | 94.4 | 63 | inactive |
| Cryba4 | 2 | 109 | 79 | inactive |
| Cryba4 | 3 | 115 | 112 | inactive |
| Ltc4s | 1 | 101 | 80.7 | inactive |
| Ltc4s | 2 | 48.1 | 69.7 | inactive |
| Ltc4s | 3 | 81.3 | 65.5 | inactive |
| Tcerg1 | 1 | 137 | 76.9 | active |
| Tcerg1 | 2 | 102 | 120 | inactive |
| Tcerg1 | 3 | 85.6 | 97.3 | inactive |
| Vangl2 | 1 | 94.6 | 87.4 | inactive |
| Vangl2 | 2 | 66.1 | 51.6 | inactive |
| Vangl2 | 3 | 118 | 64.1 | inactive |
| Trmt1l | 1 | 82.5 | 80.1 | inactive |
| Trmt1l | 2 | 40.3 | 64.1 | inactive |
| Trmt1l | 3 | 26.2 | 28.5 | inactive |
| Coa5 | 1 | 88.9 | 84.4 | inactive |
| Coa5 | 2 | 90.1 | 106 | inactive |
| Coa5 | 3 | 135 | 161 | active |

Targets above whose gene name begins with T or t:
| gene | reagent no. | GFP, % of control | viability (ATP), % of control | call |
| --- | --- | --- | --- | --- |
| Tcerg1 | 1 | 137 | 76.9 | active |
| Tcerg1 | 2 | 102 | 120 | inactive |
| Tcerg1 | 3 | 85.6 | 97.3 | inactive |
| Trmt1l | 1 | 82.5 | 80.1 | inactive |
| Trmt1l | 2 | 40.3 | 64.1 | inactive |
| Trmt1l | 3 | 26.2 | 28.5 | inactive |
